Laboratory results as given in PubChem BioAssay AID662 (National Center for Advancing Translational Sciences (NCATS), 2007).
The list shows a part of the results. The main result of the screen is listed elsewhere. These columns were measured beside it and carry no call. Compounds called inactive in the main read-out are mostly missing here. Potencies come from curve fits of mixed quality, noted in brackets.

Assay: Cell signaling CRE-BLA (Fsk stim)
Details: CHO CRE-bla reporter (cAMP response element driving beta-lactamase), forskolin EC10, beta-lactamase ratio; measured here: 460 nm blue channel
Method in brief: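 Beta-lactamase reporter under a cAMP responsive element in CHO cells; compounds tested in titration series against EC10 NKH 477, 3 h at 37 °C. Read-out: CCF4 FRET ratio 460nm/530nm (excitation 405nm) giving %Activity, fitted to AC50.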

Compound	AC50
CN1CCN(c2ncc3nc(-c4cc(F)cc(F)c4)c(=O)n(C4CC4)c3n2)CC1	10 µM [rising, partial curve]
O=c1nc2n(c3c1oc1ccccc13)Cc1ccccc1-2	5.01 µM [rising, partial curve]
O=c1cc(CSc2nnc(COc3ccccc3Cl)o2)nc2sccn12	12.6 µM [rising, single point]
CCC(=O)c1cc(F)c(N2CCN(S(=O)(=O)c3ccc(C)cc3)CC2)cc1C	0.501 µM [rising, full curve]
CCCC/C=C/C(NC(=O)OCc1ccccc1Cl)c1ccccc1 (stereo not drawn)	12.6 µM [rising, single point]
Cc1sc2nc3n(c(=O)c2c1C)CCCS3	12.6 µM [rising, single point]
O=C(Nc1ccc2nc(-c3cccs3)[nH]c2c1)c1cccs1	2.51 µM [rising, full curve]
CC1CC(C)(C)NC(=S)S1 (stereo not drawn)	0.0251 µM [rising, partial curve]
COc1ccc(-c2nn(C)c(=O)c3ccccc23)cc1CNC(=O)c1ccco1	6.31 µM [rising, partial curve]
C=CCn1c(COc2ccc(Cl)cc2)nnc1SCc1ccc(C#N)cc1	0.316 µM [rising, full curve, poor fit]
COc1ccc(/C=N/c2nc3ccccc3n2C)cc1OC	12.6 µM [rising, partial curve]
N#Cc1ccc(CN2CCN(C(=O)c3ccccc3)CC2)c(Cl)c1	3.98 µM [falling, partial curve]
CCOC(=O)N1CCN(S(=O)(=O)c2ccc(F)c(C(=O)Nc3cc(C)cc(C)c3)c2)CC1	0.501 µM [rising, full curve, poor fit]
CCCCOc1ccc(CC(=O)NO)cc1	1 µM [rising, partial curve]
COc1ccccc1N(CC(=O)N1CCCCCC1)S(C)(=O)=O	0.398 µM [rising, partial curve]
Oc1c(Cl)cc(Cl)cc1Sc1cc(Cl)cc(Cl)c1O	3.98 µM [falling, full curve]
CCOC(=O)c1c(C)nc2sccn12	12.6 µM [rising, partial curve]
COC(=O)c1cc(Br)ccc1-c1ccc(/C=N/n2nnnc2N)o1	3.98 µM [rising, partial curve]
COc1cccc(Cn2c(=O)c(-c3ccc(F)cc3)nc3cnc(N4CCOCC4)nc32)c1	0.398 µM [rising, full curve]
CCc1ccc(-c2nc(CN3CCC(C(=O)N4CCN(c5ccccc5)CC4)CC3)c(C)o2)cc1	3.98 µM [falling, full curve]
O=c1c(-c2ccc(F)cc2)nc2cnc(N3CCOCC3)nc2n1Cc1ccc(F)cc1	1 µM [rising, partial curve]
CCOc1ccc(-c2nnn(CC(=O)Nc3cccc(OC)c3)n2)cc1OCC	5.01 µM [rising, partial curve]
COc1cccc(S(=O)(=O)NCc2ccc(C(=O)NCc3ccco3)cc2)c1	6.31 µM [falling, partial curve, poor fit]

Already shown: an excerpt of the list.
Compound	AC50
O=C(Nc1ccc2nc(-c3cccs3)[nH]c2c1)c1cccs1	2.51 µM [rising, full curve]
CC1CC(C)(C)NC(=S)S1 (stereo not drawn)	0.0251 µM [rising, partial curve]
COc1ccc(-c2nn(C)c(=O)c3ccccc23)cc1CNC(=O)c1ccco1	6.31 µM [rising, partial curve]
C=CCn1c(COc2ccc(Cl)cc2)nnc1SCc1ccc(C#N)cc1	0.316 µM [rising, full curve, poor fit]
COc1ccc(/C=N/c2nc3ccccc3n2C)cc1OC	12.6 µM [rising, partial curve]

(continued)

Compound	AC50
CCC(C)n1cnc2c(c1=O)c1nc3ccccc3nc1n2Cc1ccc2c(c1)OCO2 (stereo not drawn)	12.6 µM [rising, partial curve]
CCOC(=O)C1CCCN(C(=O)CNS(=O)(=O)c2ccc(Br)s2)C1 (stereo not drawn)	15.8 µM [rising, single point]
CCn1nc(CC(=O)Nc2ccc(-n3cnnn3)c(C)c2)c2ccccc2c1=O	20 µM [rising, single point]
Cc1noc(C)c1-c1ccc2ncnc(Nc3ccccc3)c2c1	2.51 µM [rising, full curve, poor fit]
Cc1cc(C)nc(N2CCC(C(=O)N3CCN(c4cc(Cl)ccc4C)CC3)CC2)n1	15.8 µM [falling, single point]
O=C(COc1ncnc2ccccc12)N1CCN(C(=O)c2ccco2)CC1	3.98 µM [falling, single point]
CCCCOC(=O)C1=C(C)Nc2ncnn2C1c1cccc(OC)c1OC (stereo not drawn)	0.00398 µM [falling, full curve]
COc1ccc(-n2c(=O)c3c4c(sc3n3cnnc23)CC(C)CC4)cc1 (stereo not drawn)	10 µM [rising, partial curve]
CS(=O)(=O)Nc1cccc(-c2nc(-n3ccnc3)c3ccccc3n2)c1	10 µM [rising, partial curve]
CSc1c(C#N)c(N)c(C#N)c2c1COC(C)(C)C2	3.16 µM [rising, full curve]
CCN(CCCNC(=O)c1[nH]c(C)c(C(C)=O)c1C)c1cccc(C)c1	3.16 µM [rising, single point]
O=c1cc(-c2cccc(O)c2)oc2c(O)c(O)ccc12	0.398 µM [rising, partial curve, poor fit]
COc1ccc(-n2c3c(cc(C(=O)N4CCN(CCO)CC4)c2=O)C(=O)CC(C)(C)C3)cc1	0.00316 µM [falling, full curve, poor fit]
Cc1ccc(CC23CN4CCN(CC(C4)C2O)C3)c(C)c1 (stereo not drawn)	25.1 µM [falling, single point]
Cc1ccc(Nc2nc(N)nc(CSc3nnnn3-c3ccccc3)n2)cc1	10 µM [rising, partial curve]
COc1ccccc1-n1c(SCC(=O)N2CCCC2)nc2cccnc21	3.98 µM [falling, partial curve]
CCCCNC(=O)c1nc2ncc(Br)cn2n1	0.794 µM [falling, full curve]
COc1cc2oc(-c3ccccc3)cc(=O)c2cc1O	15.8 µM [falling, partial curve, poor fit]
CCc1cc2c3c(c(=O)oc2cc1OC)CCCC3	7.94 µM [rising, partial curve]
O=C(Oc1ccccc1)N1CCC2(CC1)CCN(c1ncccn1)CC2	3.98 µM [rising, single point]
CCOC(=O)c1ccccc1NC(=O)C1COc2ccccc2O1 (stereo not drawn)	10 µM [rising, partial curve]
CCOC(=O)C(CCC#N)(CCC#N)C(=O)OCC	12.6 µM [rising, single point]
Cc1cnc(CNc2nc(-c3ccoc3)nc3ccccc23)cn1	7.94 µM [rising, partial curve]

Compound	AC50
COc1ccc(-c2cc(C(=O)N3CCCc4ccccc43)no2)cc1	0.0794 µM [falling, full curve, poor fit]
Cc1ccc(CNc2ccc3c(c2)ncn3C)cc1	7.94 µM [falling, partial curve]
Cc1cc(N2CCC3(CC2)OCCO3)n2nc(C)c(-c3ccc(Cl)cc3)c2n1	3.98 µM [rising, partial curve]
COc1ccc(C2=C(O)C(C)N(c3ccccc3)C2=N)cc1OC (stereo not drawn)	5.01 µM [falling, full curve, poor fit]
CCC(c1nnnn1Cc1ccco1)N(Cc1cc2cc(OC)ccc2[nH]c1=O)C1CCCCC1 (stereo not drawn)	12.6 µM [rising, single point]
Cc1cccc(N2CCN(C(=O)CSCc3c(C)noc3C)CC2)c1C	7.94 µM [falling, partial curve, poor fit]
Cc1c(CC(C)(C)C(=O)O)n(Cc2ccc(Cl)cc2)c2ccc(F)cc12	31.6 µM [falling, single point]
COC(=O)c1cn(NC(=O)CC2CCCCC2)c(=O)c2ccccc12	0.126 µM [falling, full curve, poor fit]
CCc1cccc(NC(=O)CS(=O)Cc2nc(-c3ccc(C)cc3)oc2C)c1 (stereo not drawn)	12.6 µM [falling, partial curve]
Nc1ccc2oc(-c3cccc(Br)c3)nc2c1	10 µM [rising, partial curve]
COc1cccc(Cn2c(=O)c(-c3cccc(F)c3)nc3cncnc32)c1	12.6 µM [rising, partial curve]
Cc1cccn2cc(CCNS(=O)(=O)c3ccc4c(c3)OCCO4)nc12	12.6 µM [rising, partial curve]
COc1ccc(O)c(C(=O)c2cnn(C(=O)c3cc(C)oc3C)c2)c1	3.98 µM [falling, partial curve]
O=C(OCN1C(=O)c2ccccc2C1=O)c1ccc2c(=O)n3c(nc2c1)CCC3	12.6 µM [rising, single point]
O=C1C(=O)N(Cc2ccco2)C(c2cccc(Cl)c2)/C1=C(\O)c1ccc2c(c1)OCCO2 (stereo not drawn)	2.51 µM [falling, single point]
c1ccc(CNc2ncnc3ccc(-c4ccc5c(c4)OCO5)cc23)cc1	5.01 µM [rising, single point]
CC(=O)C(C)Oc1ccc2c3c(c(=O)oc2c1C)CCCC3 (stereo not drawn)	10 µM [rising, partial curve]
O=c1c(O)c(-c2ccccc2)oc2cc(O)cc(O)c12	31.6 µM [rising, single point]
Cc1cccc(CNc2nc(-c3cccnc3)nc3ccccc23)c1	0.631 µM [rising, single point]
Cc1ccnc2c(N3C(=O)C4C5C=CC(C5)C4C3=O)cccc12 (stereo not drawn)	1 µM [rising, full curve]
CCCC/C=C/C(NC(=O)c1ccc(C(F)(F)F)cc1)c1ccccc1 (stereo not drawn)	5.01 µM [rising, partial curve]
COc1cccc(C(=O)Nc2ncc3c(n2)CC(C)(C)CC3=O)c1	25.1 µM [rising, single point]
